Results taken from patent US11697798B2, “Enhanced differentiation and maturation of pluripotent stem cell-derived myogenic cells” (Regents of the University of Minnesota, priority 2017, dated 2023).
For part of these data: At least one structure is not confirmed: it was looked up by name or label, or the drawing left a doubt. Some entries share one result that the patent states for a list of compounds.

How the values were obtained:
[1] = test system: hES (H9) and iPS (PLZ) cell-derived myogenic progenitors; test: RT-qPCR of myotubes differentiated from myogenic progenitors with gamma secretase inhibitors; assay type: cell-based, human; settings: 10 μM, KOSR based differentiation medium
Method: Human induced Pluripotent Stem Cells (hiPSC, PLZ) or Embryonic Stem Cells (hESC, H9) were transduced with the lentiviral constructs pSAM2-PAX7-ires-GFP and pFUGW-rtTA to generate doxycycline-inducible PAX7 (iPAX7) PS-cells as previously reported (Darabi, 2012). iPAX7-PS cells were cultured on matrigel-coated flasks using mTeSR1 medium (Stem Cell Technology). Cells were differentiated to myogenic progenitors as previously described (Darabi and Perlingeiro, 2016). Briefly, iPAX7-PS cells were detached with Accumax and 1×10^6 cells were plated in 6 cm non-adherent Petri dishes with mTeSR1 supplemented with 10 uM Y-27632 (ROCK inhibitor) and incubated at 37° C., 5% CO2 on a shaker at 60 RPM for 48 h. Then, medium was replaced with EB Myogenic (EBM) Medium supplemented with 10 uM […] (GSK3-β inhibitor) and 10 uM Y-27632. Three days later supplements were removed by changing to fresh medium. At day 7, EBs were plated on gelatin-coated flasks with EBM medium+10 ng/ml human basic FGF (bFGF) and three days later 1 ug/ml of doxycycline was added to the medium to induce PAX7 expression. Cells were harvested by trypsinization at day 14 and subsequently FACS sorted for GFP(+) expression. From this point, cells are considered as myogenic progenitors and cultured on gelatin-coated flasks using EBM medium+10 ng/ml bFGF+1 ug/ml Dox.
For terminal differentiation, myogenic progenitors at P3-P5 were plated on gelatin-coated dishes with EBM medium+10 ng/ml bFGF+1 ug/ml Dox. Upon reaching 100% confluency, medium was removed and replaced with knockout serum replacement (KOSR) or horse serum based terminal differentiation medium (TDM) supplemented with 10 uM DAPT, 10 uM BMS-906024.5 days after terminal differentiation, cells were fixed or collected for RNA analysis.
Differentiated myotubes (5d) were collected with TRIzol (Thermo Fisher Scientific) and RNA was purified using the Direct-zol RNA MiniPrep Plus (Zymo Research) following manufacturer's instructions. cDNA was obtained by RT-PCR using SuperScript VILO (Invitrogen) and qPCR was performed by using the Premix Ex Taq ROX plus (Takara) and TaMan probes (Thermo Fisher Scientific) specific to the genes of interest. qPCR was done with a QuantStudio 6 Flex Real-Time PCR System (Thermo Fisher Scientific). Data was normalized to GAPDH expression.

[2] = test system: myotubes derived from hESC-1, hiPSC-1 and hiPSC-2; test: Small molecule library screening (Tocriscreen Stem Cell Toolbox), MHC/DAPI area ratio; assay type: cell-based, human; settings: terminal differentiation
Method: After 24 hours, cells were switched to MM with 1 μg/ml Doxycyline and incubated at 37° C. for 2 days. 1/10th of EBs were then plated on gelatin coated T-75 flasks in MM with 1 μg/ml dox and 5 ng/ml human basic fibroblast growth factor (bFGF). After 4 days, cells were dissociated with 0.25% trypsin-EDTA, FACS sorted for GFP to derive myogenic progenitors which were plated at a density of 2 million/T-75 flask in MM with 1 μg/ml dox and 5 ng/ml bFGF. Once the cells reached 90% confluency, myogenic progenitors were dissociated with 0.25% trypsin-EDTA and passaged at a ratio of 1:6 to 1:8. To induce terminal differentiation, myogenic progenitors at P3-4 were plated at a density of 75,000 cells/24-well plate and allowed to grow confluent for 3 days. […]
Small molecule library screening was done using the tocriscreen stem cell toolbox kit (tocris) which consisted of 80 compounds. […] The stained plates were imaged using cytation plate reader and 49 pictures were taken per well to cover most of the area. The images were stitched together and the ratio of area of MHC/DAPI staining was quantified using Image J and normalized to that of DMSO treated cells. […] Different combinations were made with selected compounds and their effect on differentiation was tested and quantified. […]

Row | SMILES | expression level of myogenin (MYOG) compared to untreated controls [1] | expression level of myosin heavy chain 3 (MHC3) compared to untreated controls [1] | myotube differentiation efficiency [2]
1 | CC(NC(=O)Cc1cc(F)cc(F)c1)C(=O)N[C@H](C(=O)OC(C)(C)C)c1ccccc1 (stereo partly drawn) [DAPT] | 2-3 fold | 2-3 fold | 
2 | C=C[C@@]1(C)CC(=O)[C@]2(O)[C@@]3(C)[C@@H](O)CCC(C)(C)[C@@H]3[C@H](O)[C@H](OC(C)=O)[C@@]2(C)O1 [Forskolin] |  |  | promoted higher myotube differentiation efficiency
3 | CN1C(=O)[C@@H](NC(=O)[C@H](CCC(F)(F)F)[C@H](CCC(F)(F)F)C(N)=O)N=C(c2ccccc2)c2ccccc21 [BMS-906024] | 2-3 fold | 2-3 fold | 
4 | C[C@@H]1C[C@H]2[C@@H]3CCC4=CC(=O)C=C[C@]4(C)[C@@]3(F)[C@@H](O)C[C@]2(C)[C@@]1(O)C(=O)CO [Dexamethasone] |  |  | promoted higher myotube differentiation efficiency
